Measurements reported in PubChem BioAssay AID652272 (Drosophila RNAi Screening Center, 2013)
Aim: 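Genes whose knock-down decreases or increases Hedgehog reporter output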 (primary screen). System: Drosophila clone 8 (Cl8) cells. Reagents: long dsRNA against Drosophila genes. Measured: 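Firefly light from a Hedgehog-responsive ptc promoter reporter and Renilla reference light, both read on a plate reader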. Reading the numbers: firefly Hh reporter signal: higher = more ptc reporter light; Renilla reference signal: higher = more Renilla control light. Call rule: 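Called a hit if the two-replicate mean z-score lies below -2 or above +3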. Calls: active = hit: reporter lowered or raised; inactive = not a hit.
The deposit covers about 21,000 reagents; shown is a random part of those with a known target gene and a result. Of all reagents, 503 (2.4%) got an active call. 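Raw plate light values, not normalised; calls rest on replicate z-scores that were not deposited; hits include reporter decreases as well as increases.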 The numbers tell different reagents against one gene apart. Names joined by + are all predicted targets of the reagent. No sequences are given here. Not stated in the record: the amount of reagent, the time to read-out.

target gene,reagent,"firefly Hh reporter signal, replicate 1","firefly Hh reporter signal, replicate 2","firefly Hh reporter signal, replicate 3","Renilla reference signal, replicate 1","Renilla reference signal, replicate 2",Outcome
rpk,1,1.57e5,1.31e5,,5431,3612,inactive
UQCR-C1,1,1.02e5,93364,,4951,3525,inactive
Surf6,1,1.02e5,80471,,4852,3762,inactive
CG4101,1,1.51e5,,,3856,15027,inactive
Hmgs,1,73253,56256,,2005,4192,inactive
Dh44-R1,1,1.04e5,91593,,4785,3973,inactive
CG8483,1,1.14e5,85504,,4330,3303,inactive
CG12111,1,1.13e5,3.92e5,,3737,13088,inactive
AstC,1,1.55e5,69633,,3714,6378,inactive
CG1360,1,74116,40053,,1867,3931,inactive
Ufd1,1,79200,1.02e5,,4912,4481,inactive
olf186-M,1,51875,57874,,1014,4384,inactive
Snap24,1,63432,1.28e5,,1680,3905,inactive
CG7546,1,98368,2.41e5,,2809,10112,inactive
CG7546,2,1.76e5,4.70e5,1.14e5,7020,28487,inactive
pkm,1,1.39e5,1.04e5,,3232,2621,inactive
AANATL4,1,97584,60793,,2764,4365,inactive
CG4592,1,1.82e5,93428,,6297,4203,inactive
CG17294,1,1.02e5,1.26e5,,3780,3148,inactive
Tsf3,1,1.18e5,59524,,4693,2336,inactive
ND-PDSW,1,83104,57766,,4370,2860,inactive
Zip88E,1,98451,1.01e5,,1968,2292,inactive
zf30C,1,48083,67421,,2756,3272,inactive
Nin,1,63877,47633,,2806,2189,inactive
Tektin-C,1,31043,28752,,6902,3619,active
CG43777 + CG43776 + CG43775,1,76816,68112,,1596,5798,inactive
Spg7,1,49617,1.89e5,,802,7904,inactive
CG31058 (retired record),1,71171,56406,,2224,1808,inactive

In a second layout: 8 of the entries above
target gene	reagent	firefly Hh reporter signal, replicate 1	firefly Hh reporter signal, replicate 2	firefly Hh reporter signal, replicate 3	Renilla reference signal, replicate 1	Renilla reference signal, replicate 2	Outcome
CG17294	1	1.02e5	1.26e5		3780	3148	inactive
Tsf3	1	1.18e5	59524		4693	2336	inactive
ND-PDSW	1	83104	57766		4370	2860	inactive
Zip88E	1	98451	1.01e5		1968	2292	inactive
zf30C	1	48083	67421		2756	3272	inactive
Nin	1	63877	47633		2806	2189	inactive
Tektin-C	1	31043	28752		6902	3619	active
CG43777 + CG43776 + CG43775	1	76816	68112		1596	5798	inactive

Further records:
target gene,reagent,"firefly Hh reporter signal, replicate 1","firefly Hh reporter signal, replicate 2","firefly Hh reporter signal, replicate 3","Renilla reference signal, replicate 1","Renilla reference signal, replicate 2",Outcome
Or45b,1,1.09e5,70297,,2688,5605,inactive
CG8908,1,78272,64072,,1984,4205,inactive
CG5662,1,3.52e5,59894,,2481,2481,inactive
cold,1,1.07e5,1.27e5,,4832,5417,inactive
Obp56b,1,73864,45347,,1884,3385,inactive
RpL18A,1,21368,17079,,1258,2198,active
RhoGAP54D,1,53717,37073,,1492,2631,inactive
CG31178,1,7.66e5,1.97e5,,40662,4210,inactive
pim,1,41239,26168,,1921,1526,inactive
CG34229,1,1.13e5,86885,,2774,5472,inactive
CG13711,1,43768,40241,,6002,3188,inactive
CG12725,1,78151,2.33e5,,1316,10226,inactive
CG9294,1,74976,41680,,2336,4197,inactive
CG11929,1,70120,51179,,1957,4522,inactive
Nup43,1,7.38e5,1.40e5,,37275,3981,inactive
CG43071,1,80244,1.48e5,,2790,7453,inactive
Cht11,1,80195,2.24e5,,2785,7989,inactive
yellow-g2,1,60170,40620,,2029,3392,inactive
Rpn2,1,36854,25546,,1495,1557,active
Lipt2,1,1.87e5,7.59e5,1.15e5,8277,44790,inactive
CG15036,1,74592,1.71e5,,2658,7387,inactive
Pfrx,1,1.55e5,2.54e5,,6305,11779,inactive
Pfrx,2,6.38e5,2.08e5,,36711,4491,inactive
CG11149,1,88058,56208,,2285,4757,inactive
Art2,1,74504,44444,,896,4806,inactive
nom,1,67712,95585,,2545,4951,inactive
salto,1,69773,37318,,2828,1549,inactive
CG9380,1,86248,69885,,1892,6376,inactive
MED24,1,52644,64931,,2147,4741,inactive
